Some of these results come from one statement about several compounds together.
System: human COLO 205 xenograft tumor
Experiment: Inhibitory activity on human colon cancer xenograft tumors
Type: in vivo, Balb/c nu mice
Conditions: 5 mg/kg i.p. once a day for 10 days
Experimental: 4 to 5 weeks old Balb/c nu mice ♂ (Institute of Experimental Animals, Chinese Academy of Medical Sciences) were subcutaneously inoculated with COLO 205 human colon tumor tissue pieces. When the tumor grew to the volume of 120 mm3, the tumor-bearing mice were divided into 4 groups (n=7/group), which were intraperitoneally injected with normal saline (negative control group), NCPT-1.M1 5 mg/kg, NCPT-1.M1 15 mg/kg and wtTRAIL 15 mg/kg once a day for 10 consecutive days. […] During the experiment, the tumor length diameter (a) and wide diameter (b) were measured every two days with a vernier caliper, and tumor volume (TV) was calculated according to the following formula: TV=½×a×b^2; From the above, the relative tumor volume (RTV) was calculated according to following formula: RTV=Vt/V0. Wherein V0 is the tumor volume measured on the day of the administration, but before administration (i.e., d0), and Vt is the tumor volume measured every time. The relative tumor proliferation rate T/C (%) is used as an evaluation index. Evaluation criteria: T/C (%)>40% means no effect; T/C (%)≦40% and the statistical significance of P<0.05 means being effective.
T/C %=RTVT/RTVC*100%. (RTVT: RTV of the treatment group; […]: RTV of the negative control group).

B1: NCPT-1.M1: MG+His6+NCPT-1 fusion protein, SEQ ID NO: 5 (protein)
chain: MGHHHHHHTLSSPNSKNEKALGRKINSWESSRSGHSFLSNLHLRNGELVIHEKGFYYIYSQTYFRFQEEIKENTKNDKQMVQYIYKYTSYPDPILLMKSARNSCWSKDAEYGLYSIYQGGIFELKENDRIFVSVTNEHLIDMDHEASFFGAFLVGGGGGGRVAAHITGTRGRSNT
modifications: NCPT-1.M1 polypeptide sequence
tumor proliferation rate T/C(%): < 40%

— patent US9289468B2, “Fusion protein comprising circularly permuted form of trail/Apo2L, coding gene and use thereof” (Beijing Sunbio Biotech Co. Ltd., priority 2011, dated 2016)
